Where two headings read alike, the source gives them in different places. At least one compound was matched to its structure with a doubt left.
How the values were obtained:
Col8a2^Q455K mice = settings: 0.2% via chow vs normal chow; cited from earlier work
cultured FECD CECs = assay: RSL3/erastin-induced ferroptosis assay, cell viability by MTS, cultured FECD CECs; type: cell-based, human
Procedure: FIGS. 4A-4C. FECD CECs are more susceptible to ferroptosis than B4G12 control CECs. (A) Basal lipid peroxidation, as measured by C11 BODIPY, is 57% higher in cultured FECD CECs (N=3) than B4G12 cells (N=3). […] Cultured FECD CECs (N=6) also have 4.7-fold more TFR1 mRNA than B4G12 CECs (N=9), normalized to 18S. (C) Cultured FECD CECs (N=3) and B4G12 cells (N=3) were treated with 1 μM RSL3 to induce cell death via Fe-dependent ferroptosis. The cells were also treated with 100 μM of a Fe chelator, deferoxamine (DFO). Cell viability was measured using MTS assays over 8 hours.
FIGS. 5A-5B. FECD-associated ferroptosis is prevented by ubiquinol nanoparticles (NPs) and SOD2 supplementation. […] After incubating another 24 hours (68 hours total), cell viability in each culture was quantified using MTS assays.
Basal levels of lipid peroxidation and cytosolic Fe are higher in human FECD CECs than control CECs. […] One experiment assessed lipid peroxidation directly. Cultured FECD CECs and control CECs (B4G12 cells) were labeled with BODIPY and intensity was measured using flow cytometry. […] To determine whether Fe trafficking is affected in the context of FECD, TFR1 was quantified, which has been identified as an indicator of ferroptosis (Stockwell et al., 2017; Feng et al., 2020). […]

[1] = cited from earlier work

Question: For [Li] [Lithium], which “CEC death associated with ER stress and oxidative stress” value (Col8a2^Q455K mice) is on record?
Answer: prevented CEC death

Question: For CCOc1ccccc1-n1c(C(C)N2CCN(C(=O)COc3ccc(Cl)cc3)CC2)nc2ccccc2c1=O (stereo not shown) [erastin], which “sensitivity of cells to induced ferroptosis” value (cultured FECD CECs) is on record?
Answer: sensitive

Question: Which stability [1] does the source give for COc1c(O)c(C)c(C/C=C(\C)CC/C=C(\C)CC/C=C(\C)CC/C=C(\C)CC/C=C(\C)CC/C=C(\C)CC/C=C(\C)CC/C=C(\C)CC/C=C(\C)CCC=C(C)C)c(O)c1OC [free ubiquinol, ubiquinol] here?
Answer: highly unstable

Question: What about the stability ([1]; listed as Native ubiquinol) of the same molecule?
Answer: highly unstable and degenerates in the presence of O2 and light

Source: patent publication US20240238383A1, “ANTI-OXIDANT CONTAINING PARTICLES AND METHODS OF USE” (University of lowa Research Foundation, priority 2021, published 2024)
